Reference: PMC9420157
These are yes or no findings as the source states them, for the method shown. Binding seen in cells or lysates may run through a third protein. Some binding calls cover weakened binding; strength is not graded here.

Sequences of proteins named here, by UniProt entry; tags and fusion partners are left off. A change or cut given only in a name is not applied to a line headed by its entry.
UniProt P12956: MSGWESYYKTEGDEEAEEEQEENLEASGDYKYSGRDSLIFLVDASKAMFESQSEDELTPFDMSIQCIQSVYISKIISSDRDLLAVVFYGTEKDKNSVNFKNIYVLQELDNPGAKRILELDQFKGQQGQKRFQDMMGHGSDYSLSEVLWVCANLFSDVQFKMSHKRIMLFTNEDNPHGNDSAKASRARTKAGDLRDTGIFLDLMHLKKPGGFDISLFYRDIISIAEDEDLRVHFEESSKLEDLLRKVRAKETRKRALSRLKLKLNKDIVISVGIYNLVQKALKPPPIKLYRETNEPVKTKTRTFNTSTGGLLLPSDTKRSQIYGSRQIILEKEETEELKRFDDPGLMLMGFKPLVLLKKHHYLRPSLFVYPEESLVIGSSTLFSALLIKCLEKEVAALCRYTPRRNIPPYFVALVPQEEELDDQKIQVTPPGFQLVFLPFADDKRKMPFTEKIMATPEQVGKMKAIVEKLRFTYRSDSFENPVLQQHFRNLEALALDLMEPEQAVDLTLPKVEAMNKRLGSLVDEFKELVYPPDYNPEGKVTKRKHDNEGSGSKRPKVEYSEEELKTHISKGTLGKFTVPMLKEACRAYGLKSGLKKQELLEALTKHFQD
UniProt P13010: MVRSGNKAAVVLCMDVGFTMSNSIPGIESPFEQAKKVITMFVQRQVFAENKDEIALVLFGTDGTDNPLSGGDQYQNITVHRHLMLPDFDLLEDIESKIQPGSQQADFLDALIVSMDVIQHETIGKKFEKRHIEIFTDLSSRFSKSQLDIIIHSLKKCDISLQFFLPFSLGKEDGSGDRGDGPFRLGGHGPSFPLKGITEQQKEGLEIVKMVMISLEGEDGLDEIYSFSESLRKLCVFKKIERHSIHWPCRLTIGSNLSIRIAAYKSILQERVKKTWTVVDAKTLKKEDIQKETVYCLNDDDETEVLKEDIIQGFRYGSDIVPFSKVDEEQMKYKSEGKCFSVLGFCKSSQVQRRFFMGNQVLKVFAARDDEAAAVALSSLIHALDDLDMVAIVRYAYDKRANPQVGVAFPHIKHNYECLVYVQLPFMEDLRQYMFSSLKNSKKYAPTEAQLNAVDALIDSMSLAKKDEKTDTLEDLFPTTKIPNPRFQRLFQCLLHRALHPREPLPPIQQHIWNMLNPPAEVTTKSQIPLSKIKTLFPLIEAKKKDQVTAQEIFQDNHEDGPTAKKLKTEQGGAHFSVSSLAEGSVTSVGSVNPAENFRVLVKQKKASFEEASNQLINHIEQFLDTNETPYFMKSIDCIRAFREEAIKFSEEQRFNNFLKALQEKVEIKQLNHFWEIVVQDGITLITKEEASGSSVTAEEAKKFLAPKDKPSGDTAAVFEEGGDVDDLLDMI

Legend:
[1] = biological target: KU complex, a heterodimer composed of the KU70 (XRCC6) and KU80 (XRCC5) proteins (human (endogenous in HeLa)) (UniProt P12956+P13010); test: proximity ligation; Duolink PLA on permeabilised, fixed HeLa cells (wildtype and BRCA2-knockout), untreated or 4 mM HU for 3 h; primary antibodies to the two endogenous proteins; HeLa-PARP14 knockout cells as specificity control
[2] = biological target: T1, MRE11 (human (endogenous in HeLa)) (UniProt P49959); test: as above
T1 sequence: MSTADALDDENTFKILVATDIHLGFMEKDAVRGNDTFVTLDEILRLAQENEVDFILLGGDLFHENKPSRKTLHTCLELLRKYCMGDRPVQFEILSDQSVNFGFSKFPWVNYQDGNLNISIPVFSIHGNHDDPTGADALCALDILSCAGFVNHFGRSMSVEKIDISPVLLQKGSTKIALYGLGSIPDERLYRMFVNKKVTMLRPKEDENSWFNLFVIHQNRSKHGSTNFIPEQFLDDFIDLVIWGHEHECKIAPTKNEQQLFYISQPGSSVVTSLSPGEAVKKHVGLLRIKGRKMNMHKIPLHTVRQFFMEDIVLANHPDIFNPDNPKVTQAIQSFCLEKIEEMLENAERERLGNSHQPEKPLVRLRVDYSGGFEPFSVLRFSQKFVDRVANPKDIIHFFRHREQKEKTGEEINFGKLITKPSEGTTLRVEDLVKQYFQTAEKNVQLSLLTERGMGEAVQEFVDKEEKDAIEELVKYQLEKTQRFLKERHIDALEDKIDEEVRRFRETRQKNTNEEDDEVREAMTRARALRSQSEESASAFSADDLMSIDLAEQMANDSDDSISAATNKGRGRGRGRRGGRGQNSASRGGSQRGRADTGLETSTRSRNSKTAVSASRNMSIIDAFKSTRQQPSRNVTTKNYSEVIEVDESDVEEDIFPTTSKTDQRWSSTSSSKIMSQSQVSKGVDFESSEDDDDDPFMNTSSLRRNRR

[3] = biological target: T1, MRE11 (human (endogenous in HeLa)); test: co-IP; co-immunoprecipitation (Supplementary Fig. 4d); cells, bait and conditions not shown

Measured: binding

PARP14 (from UniProt Q460N5 1-1801) (enzyme)
binds: all assays above
